Primary screen of a compound library

From ChEMBL document CHEMBL3988442, “University of Dundee, Small-Polar-MMV Screening Library” (2021).

A: 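Growth of Mycobacterium tuberculosis over 4 days (cholesterol / DPPC medium with tyloxapol); the read-out is not stated. Concentration: 50 µM. Direction is inferred from retests: higher values go with more growth inhibition. About 69,000 compounds were tested under these conditions; 0.54% (about 370) showed 50% or more at least once.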
B: 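Growth of Mycobacterium tuberculosis over 3 days (7H9 medium with glucose and tyloxapol); the read-out is not stated. Concentration: 50 µM. Higher reads as more growth inhibition (inferred: compounds with an IC50 in retests scored well above the rest). About 69,000 compounds were tested under these conditions; 1.1% (about 760) showed 50% or more at least once.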

Values are the deposited “Percent Effect”, in %.
The controls that fix the scale are not given in the record; negative values are as filed.
The compounds are a random part of those screened.
Two or more numbers in one place are separate tests of the same structure; such repeats can differ widely.

| compound | A | B |
|---|---|---|
| `COc1ccc(NC(=O)c2cc3c([nH]c2=O)CCCC3=O)c(OC)c1` | 9.411% | 19.73% and -2.597% |
| `CC(C)C(=O)N1CCC(CNc2nc(C(C)C)nc3c2cnn3C)CC1` | -5.68% and -2.466% | -7.98% |
| `CC(=O)N1CCC(c2ccnc(Nc3ccc(C)cn3)n2)C1` (centres unmarked) | -5.264% | -37.23% |
| `CC(C)NC(=O)c1cc2c(s1)CCN2C(=O)CN(C)C` | -12.76% | 4.456% |
| `CCc1noc(CN(CC)C(=O)C2CC(=O)N(Cc3ccncc3)C2)n1` (centres unmarked) | -6.803% | 0.7359% |
| `O=C(Nc1nncs1)N1CCC(CCc2ccc(O)cc2)CC1` | 27.06% | 37.85% |
| `Cc1ccc2c(c1)N(C(=O)c1cc[nH]c(=O)c1)CC(C)O2` (centres unmarked) | -1.793% and -19.63% | -22.24% |
| `CCC(NC(=O)c1ccc2[nH]ccc2c1)C(=O)N1CCOCC1` (centres unmarked) | 2.027% | -7.46% and 1.212% |
| `NCC1CN(c2nc(-c3cccnc3)nc3c2CCNCC3)CCO1` (centres unmarked) | -6.561% and 14.05% | 42.1% |
| `Cn1cc(-c2nnn3c2COC(CNCc2cccnc2)C3)cn1` (centres unmarked) | -4.179% | -13.34% |
| `Br.O=C(O)c1csc(NCCc2ccccc2)n1` | -15.67% | -10.01% |
| `CN(Cc1cn2c(n1)CN(CC1CCOC1)CC2)Cc1ccco1.O=C(O)C(F)(F)F.O=C(O)C(F)(F)F` (centres unmarked) | -4.216% and -35.8% | -30.9% |
| `O=C(O)C(F)(F)F.OCCOCc1n[nH]c2c1CN(Cc1ccccn1)C2` | -9.746% | -19.8% |
| `Cc1noc(C)c1CN(C)Cc1nc(N)c2ccccc2n1` | -17.86% | -10.21% and -11.28% |
| `O=C(NCCCNC(=O)c1cccc(O)c1)Nc1ccc(F)cc1F` | 12.64% | 19.21% and 0.7757% |
| `CNCC(=O)N[C@H]1CN(c2nc(C)c3c(n2)CCCC3)C[C@@H]1C1CC1` | 17.76% | 43.48% and 31.71% |
| `CS(=O)(=O)NCc1ncn2c1CN(C(=O)C1CCCO1)CCC2` (centres unmarked) | -12.16% | -15.61% |
| `Cc1ccc(CN2CC(C(=O)Nc3ccccc3)C3(CCOCC3)C2)s1.O=C(O)C(F)(F)F` (centres unmarked) | 23.17% | 57.87% |
| `CCc1nc(CN2CCCC(NCc3ccc(C(N)=O)cc3)C2)no1` (centres unmarked) | 8.171% | -8.025% |
| `Cn1ccc(C(=O)N2CCCCC2c2cc(CCO)[nH]n2)n1` (centres unmarked) | -3.014% and 3.085% | -9.969% |
| `Cc1nn(C)c(C)c1C1CCCN1Cc1nc(N)c2ccccc2n1` (centres unmarked) | 2.42% | -2.624% |
| `Cc1c(C2N3C[C@]4(C)CN2C[C@](C)(C3)C4=O)[nH]c(=O)[nH]c1=O` (some centres unmarked) | -3.998% | -19.69% |
| `COc1ccc(CN2CCN(C3CCc4ccccc4C3)CC2)cc1O` (centres unmarked) | -3.864% | -0.6493% and 18.65% |
| `O=C(CSCc1ccncc1)NCc1csc(Br)c1` | -17.95% | -3.896% |
| `CCc1nccn1C1CCCN(C(=O)c2ccc(-n3ccnc3)cc2)C1` (centres unmarked) | -10.76% | 13.97% |
| `O=C(CSCC1CC1)N1CCC2(CCCN(C3CCOCC3)C2=O)C1` (centres unmarked) | 2.49% | 10.59% |
| `CN(C)C(=O)CN1CCC2(CCN(S(C)(=O)=O)CC2)C1=O` | -5.865% | 4.368% |
| `O=C(c1cccnc1O)N1CCC(COc2ccccc2)CC1` | -17.97% | -13.32% |
| `Cc1nccc(C2CCCCN2Cc2cccc(F)c2)n1` (centres unmarked) | -3.927% | 13.55% |
| `N#Cc1ccc(OCCNCCn2cccn2)cc1` | -10.76% | -3.9% |
| `Cc1ccc(CN2CCC3(CC2)CN(c2ccccc2)C(=O)CO3)o1.O=C(O)C(F)(F)F` | 2.293% | -29.68% |
| `CC(=O)C1(c2ccccc2)CCN(C(=O)C2CNCCO2)CC1` (centres unmarked) | -29.29% | -12.67% |
| `Cc1ccc(OCCN(C)C(=O)NC(C)c2nncn2C)cc1` (centres unmarked) | -2.049% | -13.86% |
| `O=C(c1ccncn1)N1CCC[C@]2(C[C@@H](OCc3ccccn3)CO2)C1` | 9.13% and -8.391% | -34.25% |
| `Cn1nc(-c2ccccc2)c(Cl)c1C(=O)O` | 2.97% | -8.863% |
| `COC(=O)C(c1cc(F)ccc1F)N(C)C(=O)c1cnccn1` (centres unmarked) | -19.21% | -31.86% |
| `Cc1csc(C2CCCCN2C(=O)CN(C)C2CC2)n1` (centres unmarked) | -11.98% | -16.93% |
| `O=C(c1cc(CC2(NC3CCCCC3)COC2)no1)N1CCCCC1` | -13.22% | -3.398% and -22.55% |
| `Cc1nc(CC(=O)N2CCN(C(C)c3ccccc3F)CC2)cs1` (centres unmarked) | -1.653% and 2.543% | -27.91% |
| `O=C(O)[C@@H]1CN(Cc2c[nH]c(CC3CCCC3)n2)C[C@H]1c1ccccn1` | -9.003% | 12.66% |
| `[H][C@@]12CN(C(=O)c3ccc(N(C)C)cc3)C[C@]1([H])OCCN2C(C)C` | -17.58% | -25.05% |
| `COc1ccc(COCC(O)CNC(=O)c2cnc(C)cn2)cc1` (centres unmarked) | -2.629% | -0.2711% |
| `Cc1cc(CNc2ccnn2CC(C)C)ccc1-n1cncn1` | -2.947% | -6.816% |
| `Br.Cc1cc(C)nc(NCCC(=O)NCCn2ccnc2C)n1` | -27.73% | 4.421% |

The last 5 entries again:

| compound | A | B |
|---|---|---|
| `O=C(O)[C@@H]1CN(Cc2c[nH]c(CC3CCCC3)n2)C[C@H]1c1ccccn1` | -9.003% | 12.66% |
| `[H][C@@]12CN(C(=O)c3ccc(N(C)C)cc3)C[C@]1([H])OCCN2C(C)C` | -17.58% | -25.05% |
| `COc1ccc(COCC(O)CNC(=O)c2cnc(C)cn2)cc1` (centres unmarked) | -2.629% | -0.2711% |
| `Cc1cc(CNc2ccnn2CC(C)C)ccc1-n1cncn1` | -2.947% | -6.816% |
| `Br.Cc1cc(C)nc(NCCC(=O)NCCn2ccnc2C)n1` | -27.73% | 4.421% |